{"source": "patent US12622975B2", "about": "“Peptide-conjugated prodrugs” (priority 2019, dated 2026)", "assay": "Stability in human serum (LC-MS)", "type": "in vitro ADME", "details": "200 μM, 37° C.", "note": "Some entries share one result that the patent states for a list of compounds. At least one structure is not confirmed: it was looked up by name or label, or the drawing left a doubt."}
{"smiles": "O=C(CCC(=O)OCC(NC(=O)C(Cl)Cl)C(O)c1ccc([N+](=O)[O-])cc1)NCC(=O)NCC(=O)NC(Cc1ccccc1)C(=O)O", "note": "(stereo not shown) [Compound 1k]", "values": [{"measurement": "time to hydrolyze completely in human serum", "result": "≤ 2", "unit": "h"}]}
